Measured values reported in paper PMC11471390.
Results are given in words; binding and its absence hold for the method and conditions named. Binding seen in cells or lysates may run through a third protein. Some binding calls cover weakened binding; strength is not graded here.

Protein sequences, listed by entry. Tags and fused reporters are not part of them.
UniProt P56581: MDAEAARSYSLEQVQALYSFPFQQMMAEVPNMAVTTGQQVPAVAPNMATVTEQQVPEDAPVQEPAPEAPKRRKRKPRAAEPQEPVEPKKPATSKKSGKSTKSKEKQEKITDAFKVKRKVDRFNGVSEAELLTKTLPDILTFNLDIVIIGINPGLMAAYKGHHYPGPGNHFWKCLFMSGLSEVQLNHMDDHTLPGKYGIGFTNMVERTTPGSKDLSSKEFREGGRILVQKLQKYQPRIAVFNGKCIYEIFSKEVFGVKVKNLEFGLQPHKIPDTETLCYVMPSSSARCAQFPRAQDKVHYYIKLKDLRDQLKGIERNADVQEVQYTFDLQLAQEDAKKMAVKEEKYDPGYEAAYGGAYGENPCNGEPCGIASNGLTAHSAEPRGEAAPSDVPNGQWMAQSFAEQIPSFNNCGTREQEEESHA

T1: DDB1-Cullin-4-associated factor-2 (DCAF2) (mouse (endogenous in P9 mouse testes)) (UniProt Q3TLR7)
T1 sequence: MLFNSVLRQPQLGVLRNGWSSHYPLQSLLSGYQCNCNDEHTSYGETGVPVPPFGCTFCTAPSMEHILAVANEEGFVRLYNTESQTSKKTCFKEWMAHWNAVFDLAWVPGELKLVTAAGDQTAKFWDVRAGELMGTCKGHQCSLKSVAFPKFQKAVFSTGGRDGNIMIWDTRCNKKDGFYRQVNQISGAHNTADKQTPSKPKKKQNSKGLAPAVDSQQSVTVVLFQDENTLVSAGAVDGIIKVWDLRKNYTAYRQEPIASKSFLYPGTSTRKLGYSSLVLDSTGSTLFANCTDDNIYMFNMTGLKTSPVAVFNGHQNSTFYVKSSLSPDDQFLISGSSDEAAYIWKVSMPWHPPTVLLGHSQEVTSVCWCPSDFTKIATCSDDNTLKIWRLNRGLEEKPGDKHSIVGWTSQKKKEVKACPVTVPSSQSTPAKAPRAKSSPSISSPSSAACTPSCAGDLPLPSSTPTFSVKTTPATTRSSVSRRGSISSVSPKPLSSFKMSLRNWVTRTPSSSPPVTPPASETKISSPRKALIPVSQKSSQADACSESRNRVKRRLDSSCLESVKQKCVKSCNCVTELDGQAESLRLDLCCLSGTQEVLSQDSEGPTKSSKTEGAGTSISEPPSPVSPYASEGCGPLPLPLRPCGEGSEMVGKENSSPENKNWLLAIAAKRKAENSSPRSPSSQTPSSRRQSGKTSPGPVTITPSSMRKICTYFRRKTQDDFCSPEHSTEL


Molecular target: T1, DDB1-Cullin-4-associated factor-2 (DCAF2) (mouse (endogenous in P9 mouse testes))
Test: co-IP; P9 mouse testes extracted in RIPA buffer; Dynabeads Protein A with bound antibody, 4°C with rotation; samples preincubated with beads conjugated with normal rabbit/mouse IgG; denaturing elution, Western blotting

| binding | Molecule |
| --- | --- |
| binds | thymine DNA glycosylase (TDG) (from UniProt P56581 1-421) |
| binds | cyclin-dependent kinase inhibitor 1A (p21) (protein, UniProt P39689 1-159) MSNPGDVRPVPHRSKVCRCLFGPVDSEQLRRDCDALMAGCLQEARERWNFDFVTETPLEGNFVWERVRSLGLPKVYLSPGSRSRDDLGGDKRPSTSSALLQGPAPEDHVALSLSCTLVSERPEDSPGGPGTSQGRKRRQTSLTDFYHSKRRLVFCKRKP |
